Among the data in patent US20080305997A1 are binding values, retold here.

These are yes or no findings as the source states them, for the method shown. Some results given as binding are weak or reduced against the parent protein; the word gives no strength.

The test deals with sCD4-HRP (Research Diagnostics Inc.) (UniProt P01730). The test is described as follows: microtiter assay, plate-bound peptide, sCD4-HRP.

For the molecule GPNGQTCAEKNKCVGHIPGC [P11, C-terminal peptide of Salp15 (amino acids 95-114)], the binding entry is “binds”.
